Results are given in words; binding and its absence hold for the method and conditions named. Binding seen in cells or lysates may run through a third protein. Some binding calls cover weakened binding; strength is not graded here.

Amino acid sequences for entries named in this document (tags omitted).
UniProt Q9Z330: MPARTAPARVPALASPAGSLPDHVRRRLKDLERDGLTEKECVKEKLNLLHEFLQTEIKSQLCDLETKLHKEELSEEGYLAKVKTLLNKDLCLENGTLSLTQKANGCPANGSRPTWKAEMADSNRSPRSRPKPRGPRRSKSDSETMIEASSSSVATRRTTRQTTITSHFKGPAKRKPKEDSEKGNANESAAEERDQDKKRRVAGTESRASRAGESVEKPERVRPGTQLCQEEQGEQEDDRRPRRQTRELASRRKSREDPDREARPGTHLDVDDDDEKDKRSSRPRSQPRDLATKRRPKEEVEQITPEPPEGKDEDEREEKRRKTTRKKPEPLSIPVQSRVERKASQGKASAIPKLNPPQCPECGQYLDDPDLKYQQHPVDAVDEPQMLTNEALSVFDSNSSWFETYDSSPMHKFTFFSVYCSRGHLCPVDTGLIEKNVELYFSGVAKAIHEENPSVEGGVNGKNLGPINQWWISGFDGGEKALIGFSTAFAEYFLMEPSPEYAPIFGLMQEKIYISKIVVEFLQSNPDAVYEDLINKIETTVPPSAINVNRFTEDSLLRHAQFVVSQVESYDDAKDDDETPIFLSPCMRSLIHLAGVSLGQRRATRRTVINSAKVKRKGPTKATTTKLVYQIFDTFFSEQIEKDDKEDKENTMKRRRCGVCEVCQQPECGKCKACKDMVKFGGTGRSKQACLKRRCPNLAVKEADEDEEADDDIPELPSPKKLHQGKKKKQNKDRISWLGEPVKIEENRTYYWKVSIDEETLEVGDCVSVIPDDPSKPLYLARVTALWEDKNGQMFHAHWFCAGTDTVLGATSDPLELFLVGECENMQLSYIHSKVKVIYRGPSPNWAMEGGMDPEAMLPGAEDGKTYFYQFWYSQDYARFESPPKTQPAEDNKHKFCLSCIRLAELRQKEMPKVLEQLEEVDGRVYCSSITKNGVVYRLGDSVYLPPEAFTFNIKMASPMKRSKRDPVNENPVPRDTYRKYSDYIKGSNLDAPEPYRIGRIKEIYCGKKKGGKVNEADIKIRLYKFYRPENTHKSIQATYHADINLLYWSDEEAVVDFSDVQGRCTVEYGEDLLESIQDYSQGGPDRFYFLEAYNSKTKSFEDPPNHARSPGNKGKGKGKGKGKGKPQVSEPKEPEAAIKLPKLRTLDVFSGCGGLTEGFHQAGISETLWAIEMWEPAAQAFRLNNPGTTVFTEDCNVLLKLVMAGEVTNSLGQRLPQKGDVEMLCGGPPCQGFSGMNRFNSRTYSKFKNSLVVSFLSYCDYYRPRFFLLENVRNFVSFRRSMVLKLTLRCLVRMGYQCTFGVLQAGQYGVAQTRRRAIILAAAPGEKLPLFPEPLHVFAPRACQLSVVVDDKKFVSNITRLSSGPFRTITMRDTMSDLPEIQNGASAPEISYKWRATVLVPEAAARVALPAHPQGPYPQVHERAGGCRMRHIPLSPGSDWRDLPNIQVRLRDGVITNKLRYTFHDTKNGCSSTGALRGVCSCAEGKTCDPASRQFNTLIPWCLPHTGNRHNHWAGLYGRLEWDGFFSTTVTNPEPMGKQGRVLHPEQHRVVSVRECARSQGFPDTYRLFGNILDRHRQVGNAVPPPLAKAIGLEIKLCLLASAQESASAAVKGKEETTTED

Assay [1] concerns the target T1, ubiquitin-like containing PHD and RING finger domains 1 (UHRF1) (rat (endogenous in NRK-49F)) (UniProt Q7TPK1).
T1 sequence: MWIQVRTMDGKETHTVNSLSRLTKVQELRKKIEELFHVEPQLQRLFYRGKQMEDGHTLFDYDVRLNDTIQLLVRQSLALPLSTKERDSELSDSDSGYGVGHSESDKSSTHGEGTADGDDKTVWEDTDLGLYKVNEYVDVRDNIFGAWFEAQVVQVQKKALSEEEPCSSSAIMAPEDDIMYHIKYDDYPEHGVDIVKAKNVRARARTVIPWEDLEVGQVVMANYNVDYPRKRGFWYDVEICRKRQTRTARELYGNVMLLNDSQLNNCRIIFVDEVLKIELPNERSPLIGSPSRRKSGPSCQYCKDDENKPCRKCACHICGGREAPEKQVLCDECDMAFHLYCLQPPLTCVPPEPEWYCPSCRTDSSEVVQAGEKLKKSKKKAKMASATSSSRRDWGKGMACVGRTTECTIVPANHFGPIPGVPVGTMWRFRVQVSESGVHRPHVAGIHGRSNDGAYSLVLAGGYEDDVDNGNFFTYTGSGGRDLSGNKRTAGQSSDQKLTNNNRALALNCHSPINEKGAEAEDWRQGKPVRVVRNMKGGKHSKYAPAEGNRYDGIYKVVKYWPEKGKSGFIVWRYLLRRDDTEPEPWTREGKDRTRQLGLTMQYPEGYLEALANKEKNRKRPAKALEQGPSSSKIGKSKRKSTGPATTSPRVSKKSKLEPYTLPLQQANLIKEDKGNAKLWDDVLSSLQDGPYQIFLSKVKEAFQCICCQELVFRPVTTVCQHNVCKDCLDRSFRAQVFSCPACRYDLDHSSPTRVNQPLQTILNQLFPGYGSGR
Description: co-IP; NRK-49F cells harvested in IP Lysis buffer; anti-UHRF1 antibody and protein A/G magnetic beads; UHRF1-combined proteins analysed by Western blot; IgG as negative control.

Assay [2] has as its target T1, ubiquitin-like containing PHD and RING finger domains 1 (UHRF1) (rat (endogenous in NRK-49F)). Description: proximity ligation; in situ PLA kit (Sigma) in NRK-49F cells, with or without TGF-β1; also with NSC232003 (50 μM pre-incubation), which weakened the signal; red fluorescent signals by microscopy.

In the case of “DNA methyltransferase 1 (DNMT1) (from UniProt Q9Z330 1-1622) (enzyme)”, the binding entry in assay [1] and in assay [2] was “binds” throughout.

These data come from article PMC12149316.
